{"source": "patent EP3235511A1", "about": "“SULPHONAMIDE COMPOUNDS FOR USE IN THE TREATMENT OF HHV-8-ASSOCIATED DISEASES” (UNIVERSITA' DEGLI STUDI DI CAGLIARI, priority 2016, dated 2017)", "key": {"[1]": {"assay": "Cytotoxicity (MTT cell viability) on BC3 cells", "type": "cell-based", "conditions": "human", "procedure": "A stock of human HUVEC umbilical cord primary cells (Invitrogen Life Technologies, UK) was cultured in a culture medium M200 (Gibco, Life Technologies, UK) with low serum growth supplement (LSGS, Invitrogen Life Technologies, UK). The HUVEC cells were always kept in a semi-confluent state and were sub-cultured at least once a week. Prior to testing, the cells were sub-cultured no more than 3-5 times. The BC3 cells permanently infected with HHV 8 were cultured in a RPMI 1640 medium supplemented with a 10% fetal calf serum (FCS) (Invitrogen Life Technologies, UK). The BC3 cells were used to produce 100x concentrated stocks of HHV 8, as described in the literature. The pellets of the virus was suspended in RPMI, filtered through a 0.22 µm filter and stored at -80 °C until use. The quantitative analysis of viral genomes present in the stock preparation was obtained by a real-time polymerase chain reaction (qPCR). Inocula without purified cells contained an average number of 4.7 x 10^5 viral DNA copies/mL (data not shown). For infection of cells, approximately 5.0 x 10^4 HUVEC cells/mL were seeded in 12 multi-well plates. The cells were infected with HHV 8, concentrated to a multiplicity of at least 10-20 genomes per cell in an M200 containing 2 µg/mL polibrene (esadimetrin bromide) for 2 hours at 37 °C. […]"}, "[2]": {"assay": "Cytotoxicity (MTT cell viability) on HUVEC primary cells", "type": "cell-based, human", "conditions": "human, huvec cells", "procedure": "(§1) A stock of human HUVEC umbilical cord primary cells (Invitrogen Life Technologies, UK) was cultured in a culture medium M200 (Gibco, Life Technologies, UK) with low serum growth supplement (LSGS, Invitrogen Life Technologies, UK). The HUVEC cells were always kept in a semi-confluent state and were sub-cultured at least once a week. Prior to testing, the cells were sub-cultured no more than 3-5 times. The BC3 cells permanently infected with HHV 8 were cultured in a RPMI 1640 medium supplemented with a 10% fetal calf serum (FCS) (Invitrogen Life Technologies, UK). The BC3 cells were used to produce 100x concentrated stocks of HHV 8, as described in the literature. The pellets of the virus was suspended in RPMI, filtered through a 0.22 µm filter and stored at -80 °C until use. The quantitative analysis of viral genomes present in the stock preparation was obtained by a real-time polymerase chain reaction (qPCR). […] For infection of cells, approximately 5.0 x 10^4 HUVEC cells/mL were seeded in 12 multi-well plates. The cells were infected with HHV 8, concentrated to a multiplicity of at least 10-20 genomes per cell in an M200 containing 2 µg/mL polibrene (esadimetrin bromide) for 2 hours at 37 °C. […] Only cell mono-layers with at least 70-80% of HHV 8 infected cells were used for the experiments."}, "[3]": {"assay": "in vitro", "conditions": "human, thp-1 cells"}, "[4]": {"assay": "Cytotoxicity (MTT cell viability) on THP-1 cells", "conditions": "human, CC50, THP-1 cells (macrophage cell line devoid of HHV 8)"}, "[5]": {"test_system": "HUVEC cells", "assay": "Cytotoxicity (MTT cell viability) on HUVEC primary cells", "type": "cell-based, human", "conditions": "HUVEC cells (healthy umbilical cord human primary cells)", "procedure": "as §1"}}}
{"smiles": "Nc1ccc(S(N)(=O)=O)cc1", "note": "[SA4, sulphanilamide]", "values": [{"measurement": "CC50", "setting": "[1]; bc3 cells", "value": 100, "unit": "mg/L"}, {"measurement": "CC50", "setting": "[2]; CC50", "value": "~250", "unit": "mg/L"}, {"measurement": "CC50", "setting": "[3]", "value": "~125", "unit": "mg/L"}]}
{"smiles": "Cc1cc(NS(=O)(=O)c2ccc(N)cc2)no1", "note": "[BC6, sulfamethoxazole]", "values": [{"measurement": "CC50", "setting": "[4]", "value": "~125", "unit": "mg/L"}, {"measurement": "CC50", "setting": "[1]; BC3 cells (lymphoma cell line permanently infected by HHV 8), read-out: CC50", "value": 100, "unit": "mg/L"}, {"measurement": "CC50", "setting": "[5]", "value": 125.60, "unit": "mg/L"}, {"measurement": "CC50", "setting": "[2]; HUVEC cells (healthy umbilical cord human primary cells), read-out: CC50", "value": "> 125", "unit": "mg/L"}]}
